Negatives hold for the conditions tested. For part of these data: Where a protein sequence is shown, tags need not be part of it. For part of these data: The exact form of at least one protein or probe is not confirmed.
Legend:
[1] = biological target: T1, Amaranthus caudatus lectin (ACL) (Amaranthus caudatus) (UniProt Q71QF2); test: binding assay; details: after the 5' primer region all dT replaced by 4 (alpha-D-mannose-triazole-modified C8-alkyne-dU); natural dC; lectin array 0.04-400 nM; only ConA gave strong signal; purified native protein; protein details: RayBiotech Lectin Array 40; label: particle-displayed, or 5'-biotinTEG; single-stranded DNA; variant of 3-1
T1 sequence (looked up, limits assumed): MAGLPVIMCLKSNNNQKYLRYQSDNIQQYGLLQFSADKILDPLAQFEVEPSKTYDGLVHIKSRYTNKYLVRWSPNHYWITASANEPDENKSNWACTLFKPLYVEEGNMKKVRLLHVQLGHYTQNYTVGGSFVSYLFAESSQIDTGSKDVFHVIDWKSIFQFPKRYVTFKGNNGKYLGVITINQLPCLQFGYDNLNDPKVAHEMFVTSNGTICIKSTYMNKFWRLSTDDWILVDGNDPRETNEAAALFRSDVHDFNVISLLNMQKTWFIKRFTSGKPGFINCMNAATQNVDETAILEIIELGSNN

Chains of the proteins cited; added tags and fusions are not shown. Residues count along the entry.
UniProt P05046, 33-285: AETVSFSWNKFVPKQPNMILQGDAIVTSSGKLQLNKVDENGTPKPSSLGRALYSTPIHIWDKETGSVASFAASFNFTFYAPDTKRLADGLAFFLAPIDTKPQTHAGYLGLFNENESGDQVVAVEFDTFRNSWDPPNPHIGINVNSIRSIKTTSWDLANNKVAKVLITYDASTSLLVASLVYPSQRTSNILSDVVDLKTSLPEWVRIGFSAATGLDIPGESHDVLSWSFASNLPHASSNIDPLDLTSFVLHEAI

[2] = system: Datura stramonium lectin (DSA) (Datura stramonium); test: binding assay; details: after the 5' primer region all dT replaced by 4 (alpha-D-mannose-triazole-modified C8-alkyne-dU); natural dC; lectin array 0.04-400 nM; only ConA gave strong signal; purified native protein; protein details: RayBiotech Lectin Array 40; label: particle-displayed, or 5'-biotinTEG; single-stranded DNA; variant of 3-1
[3] = system: Griffonia simplicifolia lectin I (GS-I) (Griffonia simplicifolia); test: binding assay; details: after the 5' primer region all dT replaced by 4 (alpha-D-mannose-triazole-modified C8-alkyne-dU); natural dC; lectin array 0.04-400 nM; only ConA gave strong signal; purified native protein; protein details: RayBiotech Lectin Array 40; label: particle-displayed, or 5'-biotinTEG; single-stranded DNA; variant of 3-1
[4] = biological target: T2, Griffonia simplicifolia lectin II (GS-II) (Griffonia simplicifolia) (UniProt Q41263); test: binding assay; details: after the 5' primer region all dT replaced by 4 (alpha-D-mannose-triazole-modified C8-alkyne-dU); natural dC; lectin array 0.04-400 nM; only ConA gave strong signal; purified native protein; protein details: RayBiotech Lectin Array 40; label: particle-displayed, or 5'-biotinTEG; single-stranded DNA; variant of 3-1
T2 sequence (looked up, limits assumed): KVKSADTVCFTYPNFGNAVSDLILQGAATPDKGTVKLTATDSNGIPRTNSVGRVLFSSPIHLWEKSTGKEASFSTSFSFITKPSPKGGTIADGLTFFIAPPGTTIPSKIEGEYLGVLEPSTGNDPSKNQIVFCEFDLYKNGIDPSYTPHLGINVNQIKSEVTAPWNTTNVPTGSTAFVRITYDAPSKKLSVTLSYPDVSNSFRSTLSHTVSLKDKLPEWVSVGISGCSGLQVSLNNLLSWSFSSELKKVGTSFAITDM

[5] = system: Hippeastrum hybrid lectin (HHA) (Hippeastrum hybrid); test: binding assay; details: after the 5' primer region all dT replaced by 4 (alpha-D-mannose-triazole-modified C8-alkyne-dU); natural dC; lectin array 0.04-400 nM; only ConA gave strong signal; purified native protein; protein details: RayBiotech Lectin Array 40; label: particle-displayed, or 5'-biotinTEG; single-stranded DNA; variant of 3-1
[6] = biological target: T3, Jacalin (Artocarpus integrifolia) (UniProt P18670); test: binding assay; details: after the 5' primer region all dT replaced by 4 (alpha-D-mannose-triazole-modified C8-alkyne-dU); natural dC; lectin array 0.04-400 nM; only ConA gave strong signal; purified native protein; protein details: RayBiotech Lectin Array 40; label: particle-displayed, or 5'-biotinTEG; single-stranded DNA; variant of 3-1
T3 sequence (looked up, limits assumed): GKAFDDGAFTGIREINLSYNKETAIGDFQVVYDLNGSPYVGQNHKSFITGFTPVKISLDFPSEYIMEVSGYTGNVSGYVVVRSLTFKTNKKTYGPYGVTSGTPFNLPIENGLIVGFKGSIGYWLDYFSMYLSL

[7] = biological target: T4, Maackia amurensis lectin I (MAA) (Maackia amurensis) (UniProt P0DKL3); test: binding assay; details: after the 5' primer region all dT replaced by 4 (alpha-D-mannose-triazole-modified C8-alkyne-dU); natural dC; lectin array 0.04-400 nM; only ConA gave strong signal; purified native protein; protein details: RayBiotech Lectin Array 40; label: particle-displayed, or 5'-biotinTEG; single-stranded DNA; variant of 3-1
T4 sequence (looked up, limits assumed): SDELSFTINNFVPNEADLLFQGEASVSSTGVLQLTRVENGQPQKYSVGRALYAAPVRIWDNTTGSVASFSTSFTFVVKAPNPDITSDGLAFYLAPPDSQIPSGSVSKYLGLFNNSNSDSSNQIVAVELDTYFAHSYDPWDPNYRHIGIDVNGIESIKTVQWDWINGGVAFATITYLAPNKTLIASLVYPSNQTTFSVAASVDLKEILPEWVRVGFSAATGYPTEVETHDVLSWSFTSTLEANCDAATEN

[8] = biological target: T5, Psophocarpus tetragonolobus lectin (PTL) (Psophocarpus tetragonolobus) (UniProt O24313); test: binding assay; details: after the 5' primer region all dT replaced by 4 (alpha-D-mannose-triazole-modified C8-alkyne-dU); natural dC; lectin array 0.04-400 nM; only ConA gave strong signal; purified native protein; protein details: RayBiotech Lectin Array 40; label: particle-displayed, or 5'-biotinTEG; single-stranded DNA; variant of 3-1
T5 sequence (looked up, limits assumed): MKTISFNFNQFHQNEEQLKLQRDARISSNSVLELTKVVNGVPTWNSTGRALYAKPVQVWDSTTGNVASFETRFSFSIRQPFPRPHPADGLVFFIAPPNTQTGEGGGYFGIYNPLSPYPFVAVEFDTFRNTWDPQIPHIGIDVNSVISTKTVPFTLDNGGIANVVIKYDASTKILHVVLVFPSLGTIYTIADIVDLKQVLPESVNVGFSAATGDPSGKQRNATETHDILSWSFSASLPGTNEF

[9] = system: Sambucus nigra lectin II (SNA-II) (Sambucus nigra); test: binding assay; details: after the 5' primer region all dT replaced by 4 (alpha-D-mannose-triazole-modified C8-alkyne-dU); natural dC; lectin array 0.04-400 nM; only ConA gave strong signal; purified native protein; protein details: RayBiotech Lectin Array 40; label: particle-displayed, or 5'-biotinTEG; single-stranded DNA; variant of 3-1
[10] = biological target: T6, Sophora japonica lectin (SJA) (Sophora japonica) (UniProt P93535); test: binding assay; details: after the 5' primer region all dT replaced by 4 (alpha-D-mannose-triazole-modified C8-alkyne-dU); natural dC; lectin array 0.04-400 nM; only ConA gave strong signal; purified native protein; protein details: RayBiotech Lectin Array 40; label: particle-displayed, or 5'-biotinTEG; single-stranded DNA; variant of 3-1
T6 sequence (looked up, limits assumed): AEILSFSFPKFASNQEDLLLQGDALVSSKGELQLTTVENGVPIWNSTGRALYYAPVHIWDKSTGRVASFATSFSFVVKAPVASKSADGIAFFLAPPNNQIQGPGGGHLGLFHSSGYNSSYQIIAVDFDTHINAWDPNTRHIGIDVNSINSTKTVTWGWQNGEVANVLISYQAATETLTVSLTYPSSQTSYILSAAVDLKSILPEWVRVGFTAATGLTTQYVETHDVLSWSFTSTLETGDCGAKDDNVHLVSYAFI

[11] = biological target: Soybean agglutinin (SBA) (Glycine max) (UniProt P05046); test: binding assay; details: after the 5' primer region all dT replaced by 4 (alpha-D-mannose-triazole-modified C8-alkyne-dU); natural dC; lectin array 0.04-400 nM; only ConA gave strong signal; purified native protein; protein details: RayBiotech Lectin Array 40; label: particle-displayed, or 5'-biotinTEG; single-stranded DNA; variant of 3-1
[12] = biological target: T7, Ulex europaeus lectin I (UEA-I) (Ulex europaeus) (UniProt P22972); test: binding assay; details: after the 5' primer region all dT replaced by 4 (alpha-D-mannose-triazole-modified C8-alkyne-dU); natural dC; lectin array 0.04-400 nM; only ConA gave strong signal; purified native protein; protein details: RayBiotech Lectin Array 40; label: particle-displayed, or 5'-biotinTEG; single-stranded DNA; variant of 3-1
T7 sequence (looked up, limits assumed): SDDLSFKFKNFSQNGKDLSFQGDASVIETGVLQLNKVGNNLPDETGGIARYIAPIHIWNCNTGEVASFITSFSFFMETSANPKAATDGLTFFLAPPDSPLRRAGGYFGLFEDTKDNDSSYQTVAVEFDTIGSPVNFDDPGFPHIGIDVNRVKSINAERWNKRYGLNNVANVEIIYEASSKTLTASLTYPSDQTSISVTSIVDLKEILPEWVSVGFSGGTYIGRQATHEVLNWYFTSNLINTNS

[13] = biological target: T8, Vicia villosa lectin (VVA) (Vicia villosa) (UniProt P56625); test: binding assay; details: after the 5' primer region all dT replaced by 4 (alpha-D-mannose-triazole-modified C8-alkyne-dU); natural dC; lectin array; signal judged false positive (present without 3-1m); purified native protein; protein details: RayBiotech Lectin Array 40; label: particle-displayed, or 5'-biotinTEG; single-stranded DNA; variant of 3-1
T8 sequence (looked up, limits assumed): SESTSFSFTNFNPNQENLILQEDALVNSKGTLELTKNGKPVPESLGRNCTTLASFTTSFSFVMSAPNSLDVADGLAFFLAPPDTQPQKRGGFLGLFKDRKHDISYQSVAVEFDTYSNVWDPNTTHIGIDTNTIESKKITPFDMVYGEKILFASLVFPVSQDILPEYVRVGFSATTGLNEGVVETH

[14] = system: Lens culinaris agglutinin (LcH) (Lens culinaris); test: flow cytometry; details: after the 5' primer region all dT replaced by 4 (alpha-D-mannose-triazole-modified C8-alkyne-dU); natural dC; virtually no binding at 10 nM; little at 1 uM; purified native protein; protein details: fluorescent label; label: particle-displayed, or 5'-biotinTEG; single-stranded DNA; variant of 3-1
[15] = biological target: T9, Narcissus pseudonarcissus lectin (NPA) (Narcissus pseudonarcissus) (UniProt C0HM45); test: flow cytometry; details: after the 5' primer region all dT replaced by 4 (alpha-D-mannose-triazole-modified C8-alkyne-dU); natural dC; virtually no binding at 10 nM; little at 1 uM; purified native protein; protein details: fluorescent label; label: particle-displayed, or 5'-biotinTEG; single-stranded DNA; variant of 3-1
T9 sequence (looked up, limits assumed): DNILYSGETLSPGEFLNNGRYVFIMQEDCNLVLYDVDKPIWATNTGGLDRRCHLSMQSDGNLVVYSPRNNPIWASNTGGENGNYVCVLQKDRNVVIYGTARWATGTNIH

Measured: binding result

GATCCCAGTCCGAAGTAATCGTTGCATCTGCACGACTGGTGAGCTTGAGTGGCAGAAGAACTTGTGCAAACGGCTATAGG [3-1m]
no binding: [1] | [2] | [3] | [4] | [5] | [6] | [7] | [8] | [9] | [10] | [11] | [12] | [13] | [14] | [15]

Reference: US20210332360
